In patent US9278925B2, “Substituted 3-(biphenyl-3-yl)-4-hydroxy-8-methoxy-1-azaspiro[4.5]dec-3-en-2-one” (BAYER INTELLECTUAL PROPERTY GMBH, priority 2011, dated 2016):

System: human ACC1
Experiment: Human ACC1 enzyme assay (ADP-Glo)
Type: biochemical
Conditions: pairwise, same dilution series

Row | Compound | Ratio IC50s ACC2/ACC1 (respective measurement)
1 | CO[C@]1(C)CC[C@]2(CC1)NC(=O)C(c1cc(-c3ccc(Cl)c(F)c3)ccc1C)=C2O [Example V.2-a, (5r,8r)-3-(4′-Chloro-3′-fluoro-4-methylbiphenyl-3-yl)-4-hydroxy-8-methoxy-8-methyl-1-azaspiro[4.5]dec-3-en-2-one] | 114.8, 37.0, 79.1, 87.1, 55.9, 42.4, 48.0
2 | CO[C@]1(C)CC[C@]2(CC1)NC(=O)C(c1cc(-c3ccc(Cl)cc3)ccc1C)=C2O [Example V.1-a, (5r,8r)-3-(4′-Chloro-4-methylbiphenyl-3-yl)-4-hydroxy-8-methoxy-8-methyl-1-azaspiro[4.5]dec-3-en-2-one] | 29, 22, 26, 42, 24, 16, 13

The source holds more than one record for some entries. Only these are listed. An entry can have further records. Values given together read as repeated measurements on other runs, samples or individuals; one of them may be the mean.
